Results on 104 sequences are retold here after PubChem BioAssay AID1347423 (Functional Genomics Laboratory (NCATS/FGL), 2020).

The whole screen tested about 52,000 sequences, of which about 210 (0.4%) were called active.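 Rule for the calls: active = gene whose silencing raises cell survival under the drug, median off-target-corrected z-score across its silencing RNAs 2 or more; inactive = the rest.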 This is one part of the list.

The nature of the test: Resistance to Poly (ADP-Ribose) Polymerase inhibitor: Gene Identification via Genome-wide siRNA Screen. The conditions noted are these: mouse BRCA2 R2336H ES cells, olaparib, CellTiter-Glo viability; hits give high values. The method, boiled down:
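Genome-wide siRNA screen (3 siRNAs/gene, 20 nM) in mouse ES cells carrying hypomorphic BRCA2 R2336H; olaparib 500 nM added 48 h post-transfection, CellTiter-Glo viability 72 h later. Normalized to plate-median negative control; MAD z-scores, gene median, seed-adjusted.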
(In general: In ATP-based viability assays light output follows the ATP content of the culture.)
For the sequence GGACAUUUCCAAUAACAUUTT against Mki67ip, the z-score is inactive: -2.22. The same measure for “GGACACCUAUCUUGUCCGGTT against 2810410C14Rik”: inactive: 1.02; for “GGACAUUUUUAUUAGUGGATT against 0610037H22Rik”: inactive: 1.01; for GGUGGUGAUAAUUGUUUUUTT against Olfr1497: inactive: 0.218. For the sequence GCAUAUGCUUUUACAACACTT against Suhw3, the z-score was inactive: 0.929.

With GGCCUAUAAGUUGGACUCCTT against Sstr5, the z-score is inactive: -1.27.

Consider GGCAGCUCUGACUUUAUAATT against Klhdc3, for which the z-score was inactive: -2.93. CCCUAAGGUGGCAGAAAUCTT against Atp1a2: the z-score was inactive: -0.694. Under GGCCUUUCAAUGUUACAGATT against Mpo stands inactive: -1.03; under GCUGAAAGGAAUGUGCUCATT against Hspa8, inactive: -2.95; under GGCUGACAGAAGGAUGCUCTT against Rps27, inactive: 0.343.

With GCUGUCAAGGAUCAUCCCATT against AU040576, the z-score was inactive: 3.89. The same measure for CCCUACUGAGAUCUUAGAUTT against Pole: inactive: -1.7; for “GCUGCACGUGAUCAUGGAUTT against 2610203E10Rik”: inactive: 2.15; for GGCUCAAAACAGCAAGAUCTT against Angptl4: inactive: -0.361.

For “GGGCAUAGACAGUACCAGUTT against 4922502D21Rik”, the z-score was inactive: 0.272. Under GCUUUUCACAUGAUGUGUUTT against Klrb1a stands inactive: 0.553; under GGUCGCUACAAGAUGACUUTT against Hapln4, inactive: 0.151; under “GGCUUCAAGGGAAAAGCUGTT against B930037P14Rik”, inactive: 0.168. The same measure for “GCAAGACUCAGAGAGGUGGTT against A730020M07Rik”: inactive: -0.495; for “GCAGACAACGCACUGAUGATT against C630007C17Rik”: inactive: -0.367.

As to GGAUGCUUACUUACCUCAUTT against Tas2r107, the z-score is inactive: -2.06. The same measure for GCUAAGUGACCUCUUUAACTT against D15Wsu75e: inactive: -0.203; for GCUCAACACUCGACAUUGUTT against Rrm1: inactive: -2.32; for GGCUGUUGAACUUAAUCCCTT against Tomm70a: inactive: -0.723. With CGGCCUAUCUCUUGGUUUATT against Usp18, the z-score is active: 2.69.

Consider “CGGAUAAUCAACAUUUCCUTT against A430081P20Rik”, for which the z-score is inactive: 0.487. The same measure for GGAACAACUCCUGUUCCCATT against Obscn: inactive: 0.993; for GCCAUUGUACCAUGAAGAGTT against Ttc15: inactive: -1.88. As to “GGUGCUAUGGAAAAUCAAGTT against B930007L02Rik”, the z-score was inactive: 0.168. With CGAGGCUAUGAAAUCAGCCTT against Gfi1b, the z-score was inactive: 2.21.

As to GGAGAUCAAGAAUCUCUCUTT against Zfp179, the z-score was inactive: -0.0659. Under CCCAUAAAACAGUCAACUATT against Ankra2 stands inactive: 0.585; under CGCGGCAAAUGUUUUAAAUTT against Scd3, inactive: 0.478.

For the sequence GCUGAGUUCAUUGCAAUGCTT against Cyp4a12, the z-score is inactive: 0.261. The same measure for GCCUGAACAUCAAGAUCCUTT against BC018465: inactive: -0.613. The same measure for GCGACGAUUGUUAAAGCUGTT against Top1mt: inactive: 0.0562; for GGACUUACUGAAAGAUAUGTT against Satb1: inactive: -0.69. Under GGUGCAACAACUUAGUUUATT against Hspa2 stands inactive: 1.07. With GCUUUACAUCUUUGAAUGGTT against Psp, the z-score was inactive: -0.207. Take GGUCCGAUUUCAAGCCAUGTT against Ucp3: the z-score is inactive: -0.396. The same measure for GGCCUCUCUACUCCUCAACTT against Ern2: inactive: -0.389; for GGAACAAGAAAAUCUUGACTT against Ifna9: inactive: 0.167. Under GGUGCACUGUACAUGUAACTT against Fpr-rs3 stands inactive: 0.642; under GCAGGUCUUUACCAGUAUUTT against Fcgr2b, inactive: -2.61; under GGGACAGGUGCCAUUGACATT against Zcchc6, inactive: -0.89. Under “GGAAAAGCAAAAUCUCCGCTT against A730016F12Rik” stands inactive: -0.294. In the case of “GGAGAAGGUGAAACAAUUGTT against 4932431F02Rik”, the z-score is inactive: -0.0482.

Take GCUACAAGACUUUUACCAGTT against Tnfsf18: the z-score is inactive: 0.456. Under GGAACAGGCAACAUGAUUGTT against Nlgn3 stands inactive: -0.109; under CCCUGGCGAAUCAGAUUGCTT against Gm110, inactive: -1.38. For the sequence GCUCUCCUGUUACUUAUAUTT against Maoa, the z-score was inactive: -0.288. Under GGCUAUGUGUUGGAGUUCUTT against Mybph stands inactive: 0.538; under GGUCCUAGACUGGUGUCAUTT against Deadc1, inactive: -0.225. Take “CCAAGAAAGACAGUAACUATT against 4930432K21Rik”: the z-score is inactive: -1.29. Under “GGCGAAAGAUGAACCACCATT against 0610033H09Rik” stands inactive: 0.239; under GGGAAAUGACCUUCAUUGGTT against Rbl2, inactive: 0.53.

For “GGGUUUGAACUGGUGAUUGTT against 1700022C02Rik”, the z-score is inactive: 1.24.

Take GCAUUAAAGGAGUCCGAAUTT against Cpn1: the z-score was inactive: -0.212. In the case of GCUUAGUCGGGAGAACUUUTT against Skp2, the z-score was inactive: -0.968. Under UGGUAAGUAUUCAUGAAUCTT against V1rh13 stands inactive: -1.36; under GGAUGUGAACCUAAGUACUTT against Nup107, inactive: -1.76; under GCAGAUAUUUUUGUAAGCATT against Csmd1, inactive: -0.975. For the sequence “GGUGGAUCUUCCUCAAAGUTT against 0610041B22Rik”, the z-score was inactive: -0.832. As to “GGCGAACAGAGAGAGUUAGTT against 4921524J17Rik”, the z-score is inactive: 2.08.

Take CGAUGUAAGGAAAGAAAGGTT against Cd14: the z-score was inactive: -0.317. Under GGGCAUAUGAGAUUUAUUATT against Trappc2 stands inactive: 0.78. The same measure for GGACAUCAAAGAAAAGUCATT against Gpr171: inactive: -0.0204; for GGCAAUGCCACAUUUAGAUTT against Gprc2a: inactive: -0.477; for GCCAUAGCUAUUGUCAUUCTT against Mmp16: inactive: 1.66. Under CCAUCCUAAGCAGAGUCACTT against MGC73851 stands inactive: 0.953; under GGGCAUCUACUUUAAACUCTT against Mgat3, inactive: 1.28; under GCAGAAGUCUCGUAUCCAGTT against Arl6ip4, inactive: 1.89. With CCAUUAUAACACCUAUGCATT against Fgf7, the z-score was inactive: -0.358. The same measure for GCAGAUGCUGGUUUAAACATT against Za20d2: inactive: 3.22. The same measure for GGUAGUUCUGAAAAAGAAGTT against Slc7a11: inactive: -1.4; for CCUUUAAACUUCAAGAAGCTT against Btk: inactive: -0.0971.

As for GGGCAAUGGGUGAUCUAAUTT against Rpel1, the z-score is inactive: -1.06. Under GCGAUACCGUUCUCUGUACTT against MGC58608 stands inactive: -1.04; under GGAAGUUCCUCUCUACUUATT against Col8a2, inactive: -0.542; under GGACAGAGUUCGAUCGACUTT against BC021523, inactive: -0.107. Under GGGCCUUGUACUUCACUUGTT against Crsp3 stands inactive: -1.71; under “GGGACAAUGUACAUCUACUTT against E230019M04”, inactive: -1.54; under GGCCCAACACCUUUAUCAUTT against Akt1, inactive: 0.692. Under GGAAGGCCGCAUACUGAUGTT against Scgn stands inactive: 0.256; under GGACACUUCUUAUGAUGACTT against Nrf1, inactive: -1.17; under GGCUGGAUGUCAGAUUGCATT against Olfr1389, inactive: -0.831.

Consider “GGCAGCCUAUAUAUACUCATT against 4921521K07Rik”, for which the z-score was inactive: -0.27. The same measure for CGCACAGGUCAUUCUCGUGTT against Rab3b: inactive: 1.1; for GGAAAUCAAAGCUUUUGAGTT against Plaa: inactive: -0.318.

As to GCACAUAAAAUGCUCACUGTT against Rgr, the z-score was inactive: -0.761. “CCACAUCCCGAGUAUACAUTT against 4933424F08Rik”: the z-score is inactive: 0.2. Under GGCAAAUUCUGGAUCUGCUTT against BC031575 stands inactive: -1.05; under GGAAGGUGGAGUUUGAAAGTT against AW060207, inactive: -0.184; under GGUCUUCUACAGGAGCAAATT against Bcmo1, inactive: 0.692.

For the sequence GCUGCAUUCAGUGAAGAUCTT against Lgals7, the z-score was inactive: -1.48. The same measure for GGAAGAAGCAAAGAACUAUTT against Spg20: inactive: 0.597; for GGGCUUUCAAAGAUGAAAUTT against Mas1: inactive: -0.164. For the sequence CCUUGUUCGUCGCUGAGUUTT against Phca, the z-score was inactive: -1.56.

Turning to GGAUAUGGAGAAAAGGAAATT against BC026439, the z-score is inactive: -0.298. Under “CCAAGUAUAGCUAUGCACATT against 4833432P19Rik” stands inactive: -0.224; under CCACAGCACCGGAUAAAACTT against Mrgprb3, inactive: 0.0362.

In the case of GGAAUAAAGAAGUGAAAUCTT against Olfr1009, the z-score is inactive: 0.19. Under GGCCUUUAUCAGAAAGGUGTT against Grina stands inactive: -0.252.
